In PubChem BioAssay AID2685 (National Center for Advancing Translational Sciences (NCATS), 2010):
Some of the results follow. Shown are side measurements of this screen, not its main read-out; they come without a call. Most of these compounds were active or inconclusive in the main read-out, so they are no random draw. Words in brackets tell the shape of the fitted curve; partial curves, single points and poor fits give uncertain potencies.

Assay: qHTS Assay for Lipid Storage Modulators in Drosophila S3 Cells;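 on cell number change: cells counted by Cell Tracker Red CMTPX staining in the red channel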
Details: BODIPY lipid droplet fluorescence, 18-24 h; for cell number change: measured here: cell count max response, cells fed with added oleic acid
In short: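 Laser-scanning cytometry quantifies lipid droplet accumulation (500–530 nm total intensity; droplet/cell object ratio) in oleic acid-fed (400 uM added) Drosophila S3 cells treated with a concentration series. 20 uM Triacsin C defined 100% inhibition.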

[1] = measured here: lipid fluorescence (Fed channel) AC50, cells fed with added oleic acid
[2] = measured here: cell number channel AC50, cells fed with added oleic acid

SMILES: CN(C)S(=O)(=O)c1cccc(-c2nn(-c3ccccc3)cc2/C=C2\SC(=S)NC2=O)c1
- cell number change: -22.1%
- AC50 [1]: 29.1 µM [falling, single point]

SMILES: O=C(Cn1cnc2ccccc2c1=O)c1ccc2ccccc2c1
- cell number change: 57%
- AC50 [2]: 20.6 µM [rising, partial curve, poor fit]
- AC50 [1]: 11.6 µM [rising, partial curve]

SMILES: NS(=O)(=O)c1cccc(NC(=O)c2cccc(Oc3ccccc3)c2)c1
- cell number change: 34.3%
- AC50 [2]: 1.64 µM [rising, full curve]
- AC50 [1]: 6.51 µM [falling, single point]

SMILES: CC(C(=O)Nc1ccc(C(=O)O)c(O)c1)N1C(=O)/C(=C\c2ccco2)SC1=S (stereo not given)
- cell number change: -17%
- AC50 [1]: 6.51 µM [falling, single point]

SMILES: CN(CC(=O)Nc1cccc(F)c1)C(=O)c1sccc1-c1ccccc1
- cell number change: -75%
- AC50 [2]: 1.3 µM [falling, partial curve]

SMILES: O=C(Nc1ccccc1C(F)(F)F)N1CCN(c2ccc3nnc(-c4ccc(F)cc4)n3n2)CC1
- cell number change: -37.5%
- AC50 [2]: 23.1 µM [falling, partial curve]
- AC50 [1]: 0.651 µM [rising, partial curve]

SMILES: CC(=O)NCCSc1ccc(S(=O)(=O)N2CCCC2)cn1
- cell number change: 17.2%
- AC50 [1]: 0.13 µM [rising, full curve, poor fit]

SMILES: Cc1cc(N=Nc2ccc(C)c(N=Nc3cc(C)c(N)cc3N)c2)c(N)cc1N
- cell number change: 12.9%
- AC50 [1]: 0.0164 µM [rising, full curve, poor fit]

SMILES: CCOc1ccc(NC(=O)C2CC(=O)N(C(C)C)C2)cc1 (stereo not given)
- cell number change: -184%
- AC50 [2]: 23.1 µM [falling, partial curve]

SMILES: CCn1c(CCCOc2ccc(Cl)cc2Cl)nnc1SCC(=O)Nc1cc(F)ccc1C
- cell number change: -27.8%
- AC50 [1]: 29.1 µM [falling, single point]

SMILES: CC(=O)NCCc1nc2cc(NS(=O)(=O)c3ccc(Cl)cc3)ccc2n1C
- AC50 [2]: 0.0517 µM [falling, full curve, poor fit]

SMILES: CN1CC=C2C(C#N)=C(N)C(C#N)(C#N)C(CCc3ccccc3)C2C1 (stereo not given)
- cell number change: 90.8%
- AC50 [2]: 29.1 µM [rising, single point]
- AC50 [1]: 29.1 µM [rising, single point]

SMILES: CCOC(=O)N1CCN(C(=O)CCSCCc2ccncc2)CC1
- cell number change: -28.8%
- AC50 [1]: 29.1 µM [falling, single point]

SMILES: O=C(CC(=O)NC1CCCCC1)N/N=C/c1ccc(Cl)cc1
- cell number change: -21.1%
- AC50 [1]: 0.13 µM [falling, full curve, poor fit]

SMILES: O=C(COC(=O)C1C2CC3OC(=O)C1C3C2)Nc1ccc(Cl)cc1 (stereo not given)
- cell number change: 22.6%

SMILES: CC(C)CCNc1nc(-c2ccco2)c2c(c1C#N)CCCC2
- cell number change: 67.6%
- AC50 [1]: 6.51 µM [falling, single point]

SMILES: COC(=O)c1ccccc1N/C=C1\CCc2c(c(C)nn2-c2ccccn2)C1=O
- cell number change: 131%
- AC50 [1]: 0.146 µM [rising, partial curve, poor fit]

SMILES: COc1ccc(C)cc1NC(=O)C1CCN(S(=O)(=O)c2c(C)noc2C)CC1
- cell number change: -60.7%
- AC50 [2]: 9.2 µM [falling, partial curve]

SMILES: COc1cc(/C=C2/C(=O)c3cccc([N+](=O)[O-])c3C2=O)c(Br)cc1O
- cell number change: -36.2%
- AC50 [2]: 2.91 µM [falling, partial curve, poor fit]
- AC50 [1]: 9.2 µM [falling, partial curve]

SMILES: CSc1ccc(/C=C(\NC(=O)c2ccco2)C(=O)N2CCCCC2)cc1
- cell number change: 8.38%
- AC50 [1]: 23.1 µM [rising, single point]

SMILES: C/C(=N\N(Cc1ccccc1)c1ccccc1)c1ccncc1
- AC50 [2]: 0.116 µM [rising, partial curve, poor fit]

SMILES: CCC(C)(C)c1ccc(OCC(=O)Nc2ccncc2)cc1
- cell number change: -46.3%
- AC50 [2]: 14.6 µM [falling, single point]

SMILES: Cc1ccc(C2CC(c3ccccc3)=NN2C(=O)CSc2nnc(-c3ccc(Cl)cc3)o2)o1 (stereo not given)
- AC50 [2]: 0.366 µM [rising, full curve, poor fit]
- AC50 [1]: 1.03 µM [rising, full curve]

SMILES: Cn1c(=O)[nH]c(=O)c2c1nc(Br)n2CCOc1ccccc1
- cell number change: -10.3%

SMILES: COc1ccc(-c2cc(C3CCNCC3)[nH]n2)cc1
- cell number change: 0.519%
- AC50 [1]: 4.11 µM [rising, single point]

SMILES: COc1cc(CN(C(=S)NCC(=O)N2CCCC2)C2CCCC2)cc(OC)c1OC
- cell number change: 15.4%
- AC50 [2]: 0.164 µM [falling, full curve, poor fit]

SMILES: CC1CCCC(NC(=S)Nc2ccc(SC(F)F)cc2)C1C (stereo not given)
- cell number change: -43.7%
- AC50 [2]: 29.1 µM [falling, single point]
- AC50 [1]: 3.66 µM [rising, partial curve]

SMILES: O=C(NCc1ccccc1Cl)c1ccc(NC2=NC3CS(=O)(=O)CC3S2)cc1 (stereo not given)
- cell number change: 2.88%
- AC50 [1]: 0.00517 µM [rising, full curve, poor fit]

SMILES: CCN(CC(=O)NCc1ccncc1)S(=O)(=O)c1ccc(OC)cc1
- cell number change: 8.82%
- AC50 [1]: 29.1 µM [rising, single point]

SMILES: CCOC(=O)c1cccc(N2C(=O)Nc3ccccc3N2O)c1
- cell number change: 14.8%
- AC50 [1]: 0.092 µM [falling, single point]

SMILES: CCOc1cc2c(cc1OC)C(c1cccc([N+](=O)[O-])c1)NCC2 (stereo not given)
- cell number change: 11.5%

SMILES: CCOC(=O)c1c(C)c(C(=O)NCc2ccc3c(c2)OCO3)c(C)n1C
- AC50 [1]: 32.6 µM [rising, single point]

SMILES: COc1cccc2c1NC(C(=O)O)C1CC=CC21 (stereo not given)
- cell number change: -40.4%
- AC50 [2]: 5.8 µM [falling, partial curve, poor fit]
- AC50 [1]: 1.3 µM [falling, full curve]

SMILES: Cc1cc(-c2ccccc2)c2ccc(NC(=O)C(C)(C)C)nc2n1
- cell number change: -6.93%
- AC50 [1]: 29.1 µM [falling, single point]

SMILES: CN1CCN(C(=O)Nc2ccc([N+](=O)[O-])cc2)CC1
- cell number change: -21.7%
- AC50 [1]: 0.13 µM [falling, full curve]

SMILES: CC1CC(C)CN(C(=O)C2CCN(S(=O)(=O)c3cccs3)CC2)C1 (stereo not given)
- cell number change: 15.2%
- AC50 [1]: 29.1 µM [falling, single point]

SMILES: COc1ccc(S(=O)(=O)NCCc2c[nH]c3ccc(Cl)cc23)cc1
- AC50 [1]: 29.1 µM [falling, single point]

SMILES: O=C(NCCCN1CCCC1=O)c1ccc(NS(=O)(=O)c2cccc([N+](=O)[O-])c2)cc1
- cell number change: -40.5%
- AC50 [2]: 1.64 µM [falling, full curve, poor fit]

SMILES: O=C(c1ccc(F)cc1)C1CCN(CCn2c(=S)[nH]c3ccccc3c2=O)CC1
- cell number change: 2.13%
- AC50 [1]: 0.058 µM [rising, full curve, poor fit]

SMILES: O=C(OCCN1C(=O)c2ccccc2C1=O)C1CC(O)CN1S(=O)(=O)c1ccc(Cl)cc1 (stereo not given)
- cell number change: 19.2%
- AC50 [1]: 0.00517 µM [rising, full curve, poor fit]

SMILES: Cc1ccc(-c2csc3ncnc(N4CCN(S(=O)(=O)c5cccs5)CC4)c23)cc1
- cell number change: 31.5%
- AC50 [2]: 14.6 µM [rising, partial curve, poor fit]

SMILES: CCNC(=O)COC(=O)/C=C/c1cccs1
- cell number change: -1.78%
- AC50 [2]: 0.366 µM [falling, full curve, poor fit]

SMILES: COc1ccc(C2CC(c3cccs3)=NN2c2ccccc2)cc1 (stereo not given)
- cell number change: -30.2%
- AC50 [2]: 20.6 µM [falling, single point]
- AC50 [1]: 29.1 µM [falling, single point]

SMILES: COc1ccc(N2CCN(C(=O)CCS(=O)(=O)c3ccc(C)cc3)CC2)cc1
- AC50 [1]: 11.6 µM [rising, partial curve]

SMILES: COc1cccc(NC(=O)COC(=O)c2cc(=O)c3ccccc3o2)c1
- cell number change: -3.02%

SMILES: O=C(N/N=C/c1cc([N+](=O)[O-])ccc1O)c1cccc2cc[nH]c12
- cell number change: -20.8%
- AC50 [1]: 23.1 µM [falling, partial curve, poor fit]

SMILES: O=C(Nc1cccnc1)c1cc2nc(C3CC3)cc(C(F)(F)F)n2n1
- cell number change: 8.8%
- AC50 [1]: 13 µM [rising, partial curve, poor fit]

SMILES: CC12CN(NC(=O)c3ccc(Cl)cc3)C3(C#N)CC1CCC23C (stereo not given)
- cell number change: -51.4%
- AC50 [2]: 29.1 µM [falling, single point]
- AC50 [1]: 7.31 µM [rising, partial curve]

SMILES: O=C(N/N=C/c1cc2c(cc1Cl)OCO2)c1ccncc1
- cell number change: 18.9%
- AC50 [1]: 29.1 µM [rising, single point]

SMILES: Cc1cc(=O)[nH]c(SCC(=O)Nc2ccc3c(c2)CCC3)c1C#N
- cell number change: 2.5%
- AC50 [2]: 0.103 µM [rising, full curve, poor fit]

SMILES: O=C(COc1ccc(Cl)cc1Cl)NC(=S)Nc1ccc(CN2CCOCC2)cc1
- cell number change: -30.6%

SMILES: CC(C)c1ccc(NC(=O)CSc2nc3ncccc3[nH]2)cc1
- cell number change: -21.2%
- AC50 [1]: 29.1 µM [falling, partial curve, poor fit]

SMILES: CCN(CC)CCOC(c1ccccc1)c1ccc(C)cc1 (stereo not given)
- cell number change: -6.59%
- AC50 [1]: 0.461 µM [falling, single point]

SMILES: CO/N=C(\c1nonc1N)N1CCN(c2ccc([N+](=O)[O-])cc2Cl)CC1
- cell number change: -12.3%

SMILES: CC(=O)c1ccc(NC(=O)CSc2nc3[nH]ncc3c(=O)[nH]2)cc1
- cell number change: -2.69%

SMILES: N#CC1(c2ccccc2)CCC(=NO)CC1 (stereo not given)
- cell number change: 2.64%

SMILES: N#Cc1ccc(OCC(=O)NC2=NCCS2)cc1
- cell number change: 8.82%

SMILES: O=C(COc1ccccc1)Nc1nnc(S(=O)(=O)N2CCCCC2)s1
- cell number change: 5.01%
- AC50 [1]: 29.1 µM [falling, single point]

SMILES: C(=N/n1c2ccccc2c2ccccc21)/c1ccco1
- cell number change: -22.3%
- AC50 [1]: 16.4 µM [falling, partial curve, poor fit]

SMILES: CN1CCN(CCCCOc2ccc(Br)cc2)CC1
- cell number change: 51.2%
- AC50 [2]: 29.1 µM [rising, single point]
